No constants are given. Whether binding was seen depends on the method and setting. Values belong to the substance of their own block, whether it stands above or below them.
Tests used:
[1] = target: PH-TH domain of BTK wildtype (amino acid residue number 4-170) (UniProt Q06187); assay: dynamic light scattering; Malvern Zetasizer; in the presence of IP6; 25 mM Tris-Cl, 100 mM NaCl, 1 mM DTT, pH 7.2; hydrodynamic radius compared with the theoretical radius of the dimer (3.0 nm, Hydropro); both purified
[2] = target: PH-TH domain of BTK wildtype (amino acid residue number 4-170) (UniProt Q06187); assay: SEC; Superdex-200 10/300 GL; 500 ul of 75 uM protein mixed with IP6 at 1:4 (300 uM), 15 min at 4 C; column pre-equilibrated with running buffer containing the ligand; 25 mM Tris-Cl, 100 mM NaCl, 1 mM DTT, pH 7.2; 0.3 ml/min, 8 C; both purified
[3] = target: PH-TH domain of BTK, E41K/R28H double mutant (UniProt Q06187); assay: as above
[4] = target: PH-TH domain of BTK, E41K/R49S double mutant (UniProt Q06187); assay: as above
[5] = target: triple mutant of the PH-TH domain of BTK (E41K/R28H/R49S) (UniProt Q06187); assay: as above

Sequences of proteins named here, by UniProt entry; tags and fusion partners are left off. A change or cut given only in a name is not applied to a line headed by its entry. A line that says so, or that is headed by a name, gives the form on record, which may keep a tag or linker. Residues count along the entry.
PH-TH domain of BTK wildtype (amino acid residue number 4-170) (Q06187, residues 4-170): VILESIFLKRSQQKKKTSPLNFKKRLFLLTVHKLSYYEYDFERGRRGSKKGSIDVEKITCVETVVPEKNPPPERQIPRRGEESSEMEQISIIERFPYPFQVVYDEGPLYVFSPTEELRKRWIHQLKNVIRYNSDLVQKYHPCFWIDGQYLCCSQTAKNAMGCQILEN
PH-TH domain of BTK, E41K/R28H double mutant (Q06187, form named): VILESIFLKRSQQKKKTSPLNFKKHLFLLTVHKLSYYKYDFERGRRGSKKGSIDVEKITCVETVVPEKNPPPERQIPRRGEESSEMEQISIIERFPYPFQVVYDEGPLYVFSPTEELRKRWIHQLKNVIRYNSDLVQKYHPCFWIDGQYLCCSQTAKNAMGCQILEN
PH-TH domain of BTK, E41K/R49S double mutant (Q06187, form named): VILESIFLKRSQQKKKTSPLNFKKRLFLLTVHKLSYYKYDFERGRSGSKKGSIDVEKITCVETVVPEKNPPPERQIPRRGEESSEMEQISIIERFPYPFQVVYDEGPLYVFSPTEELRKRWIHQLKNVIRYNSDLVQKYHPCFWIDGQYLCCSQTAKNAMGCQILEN
triple mutant of the PH-TH domain of BTK (E41K/R28H/R49S) (Q06187, form named): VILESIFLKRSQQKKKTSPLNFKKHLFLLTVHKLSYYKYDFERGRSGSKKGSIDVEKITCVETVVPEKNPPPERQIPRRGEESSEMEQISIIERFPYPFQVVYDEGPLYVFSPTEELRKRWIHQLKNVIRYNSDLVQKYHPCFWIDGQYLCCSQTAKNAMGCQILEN

binding [1]: no binding
Substance: PH-TH domain of BTK wildtype (amino acid residue number 4-170) (from UniProt Q06187 4-170) (domain or fragment)
binding [2]: no binding (tested: 75 uM protein loaded, with IP6)

Substance: PH-TH domain of BTK, E41K/R28H double mutant (from UniProt Q06187 4-170) (domain or fragment)
binding [3]: no binding (tested: 75 uM protein loaded, with IP6)

Substance: PH-TH domain of BTK, E41K/R49S double mutant (from UniProt Q06187 4-170) (domain or fragment)
binding [4]: no binding (tested: 75 uM protein loaded, with IP6)

Substance: triple mutant of the PH-TH domain of BTK (E41K/R28H/R49S) (from UniProt Q06187 4-170) (domain or fragment)
binding [5]: no binding (tested: 75 uM protein loaded)
